Measured values from the supplement of paper PMC6411743.
± gives the standard deviation of the averaged measurements. The entries are a selection whose mix differs from that of the whole data set.

Experiments:
Assay in all cases: NP40-soluble protein abundance relative to vehicle (solubility fold change) (ratio); higher = more soluble protein in presence of ATP
[1] = molecular target: T1, UniProt Q8N8K9 and related entries
T1 sequence (whole entry): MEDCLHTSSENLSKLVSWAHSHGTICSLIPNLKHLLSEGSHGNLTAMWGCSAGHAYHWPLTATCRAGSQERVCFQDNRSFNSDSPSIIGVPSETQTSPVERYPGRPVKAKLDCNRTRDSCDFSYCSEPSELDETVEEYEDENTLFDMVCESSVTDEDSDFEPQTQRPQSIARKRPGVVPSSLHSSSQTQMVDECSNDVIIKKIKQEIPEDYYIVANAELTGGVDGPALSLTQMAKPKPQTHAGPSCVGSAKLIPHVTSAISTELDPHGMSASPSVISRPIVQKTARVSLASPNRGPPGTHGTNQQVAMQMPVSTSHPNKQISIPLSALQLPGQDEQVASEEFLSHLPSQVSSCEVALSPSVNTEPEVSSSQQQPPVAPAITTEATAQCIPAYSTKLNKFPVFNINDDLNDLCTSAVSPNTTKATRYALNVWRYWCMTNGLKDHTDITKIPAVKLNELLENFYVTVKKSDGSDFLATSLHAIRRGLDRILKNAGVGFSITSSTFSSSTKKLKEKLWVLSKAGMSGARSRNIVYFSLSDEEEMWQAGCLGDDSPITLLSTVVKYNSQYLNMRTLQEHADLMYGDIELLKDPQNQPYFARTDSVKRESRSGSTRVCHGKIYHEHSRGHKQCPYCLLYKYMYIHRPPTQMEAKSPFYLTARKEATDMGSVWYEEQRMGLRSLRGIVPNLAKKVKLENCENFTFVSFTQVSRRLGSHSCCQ
Method in brief: (§1)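 In three independent experiments, Jurkat crude lysate made by Dounce homogenisation was treated for 10 min at room temperature and then 3 min at 37 °C with eight concentrations ranging from 0.1 to 10 mM. It was then solubilised with 0.8% NP40 plus benzonase for 60 min at 4 °C and ultracentrifuged. The supernatant was TMT-labelled for LC-MS/MS, and each value is the fold change against the detergent-processed vehicle for the same replicate, using vsn-normalised intensities.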

[2] = molecular target: T2, UniProt Q8NBZ7 and related entries
T2 sequence (whole entry): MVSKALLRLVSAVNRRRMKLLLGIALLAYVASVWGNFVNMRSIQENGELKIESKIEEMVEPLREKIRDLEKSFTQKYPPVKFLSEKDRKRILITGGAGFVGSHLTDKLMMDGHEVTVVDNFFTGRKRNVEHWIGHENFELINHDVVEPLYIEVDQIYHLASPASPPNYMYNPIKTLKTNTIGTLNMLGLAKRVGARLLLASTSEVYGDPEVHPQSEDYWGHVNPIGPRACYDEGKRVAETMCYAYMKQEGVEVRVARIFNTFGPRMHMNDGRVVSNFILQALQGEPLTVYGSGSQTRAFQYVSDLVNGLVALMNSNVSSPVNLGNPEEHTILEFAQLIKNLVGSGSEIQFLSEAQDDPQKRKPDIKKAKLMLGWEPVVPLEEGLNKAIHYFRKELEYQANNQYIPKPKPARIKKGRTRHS
Method in brief: as §1

[3] = molecular target: T3, UniProt Q8NDD1 and related entries
T3 sequence (whole entry): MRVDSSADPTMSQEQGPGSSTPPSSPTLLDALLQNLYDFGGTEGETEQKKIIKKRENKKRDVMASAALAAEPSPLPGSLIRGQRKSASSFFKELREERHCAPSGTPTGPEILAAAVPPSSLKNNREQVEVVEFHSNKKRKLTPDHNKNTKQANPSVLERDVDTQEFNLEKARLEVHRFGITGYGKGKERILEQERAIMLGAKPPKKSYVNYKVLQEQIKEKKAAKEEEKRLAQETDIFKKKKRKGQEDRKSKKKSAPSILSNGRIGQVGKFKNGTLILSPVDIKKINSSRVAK
Method in brief: as §1

[4] = molecular target: T4, UniProt Q8NEY8 and related entries
T4 sequence (whole entry): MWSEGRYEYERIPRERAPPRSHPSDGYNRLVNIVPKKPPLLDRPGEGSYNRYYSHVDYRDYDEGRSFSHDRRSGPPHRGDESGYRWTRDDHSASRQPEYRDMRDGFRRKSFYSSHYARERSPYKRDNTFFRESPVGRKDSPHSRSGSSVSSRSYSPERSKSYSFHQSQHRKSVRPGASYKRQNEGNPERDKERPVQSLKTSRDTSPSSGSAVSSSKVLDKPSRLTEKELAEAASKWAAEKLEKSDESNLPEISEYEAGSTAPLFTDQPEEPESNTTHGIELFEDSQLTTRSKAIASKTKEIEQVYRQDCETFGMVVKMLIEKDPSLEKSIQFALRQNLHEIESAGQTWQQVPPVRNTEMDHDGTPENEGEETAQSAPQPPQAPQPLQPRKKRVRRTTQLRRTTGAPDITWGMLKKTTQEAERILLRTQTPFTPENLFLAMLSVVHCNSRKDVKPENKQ
Method in brief: as §1

[5] = molecular target: T5, UniProt Q8NFV4 and related entries
T5 sequence (whole entry): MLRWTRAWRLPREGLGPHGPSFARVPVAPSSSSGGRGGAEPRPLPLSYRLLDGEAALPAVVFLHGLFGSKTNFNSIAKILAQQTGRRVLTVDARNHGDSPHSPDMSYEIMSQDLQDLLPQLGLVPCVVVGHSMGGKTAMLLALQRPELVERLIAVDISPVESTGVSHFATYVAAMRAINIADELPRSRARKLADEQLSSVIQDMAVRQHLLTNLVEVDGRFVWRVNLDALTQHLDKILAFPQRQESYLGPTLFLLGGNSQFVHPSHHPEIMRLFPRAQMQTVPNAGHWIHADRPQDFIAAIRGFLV
Method in brief: as §1

[6] = molecular target: T6, UniProt Q8TAA5 and related entries
T6 sequence (whole entry): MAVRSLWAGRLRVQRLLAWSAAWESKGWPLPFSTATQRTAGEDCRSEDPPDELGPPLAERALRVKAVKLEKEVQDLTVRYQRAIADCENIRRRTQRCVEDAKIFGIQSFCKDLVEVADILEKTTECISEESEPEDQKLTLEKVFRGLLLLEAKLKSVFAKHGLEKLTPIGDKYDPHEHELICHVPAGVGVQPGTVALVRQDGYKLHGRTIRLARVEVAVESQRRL
Method in brief: as §1

**Q.** For Nc1ncnc2c1ncn2[C@@H]1O[C@H](COP(=O)(O)OP(=O)(O)OP(=O)(O)O)[C@@H](O)[C@H]1O [adenosine triphosphate], which NP40-soluble protein abundance ([1]; concentration: 8mM) is on record?
**A.** The NP40-soluble protein abundance was 0.971 ± 0.075.

**Q.** What about the NP40-soluble protein abundance ([1]; concentration: 10mM) of the same compound?
**A.** The NP40-soluble protein abundance was 1.01 ± 0.051.

**Q.** And the NP40-soluble protein abundance ([2]; concentration: 1mM)?
**A.** The NP40-soluble protein abundance was 1.06 ± 0.1.

**Q.** What about the NP40-soluble protein abundance ([2]; concentration: 2mM) of the same compound?
**A.** Its NP40-soluble protein abundance is 1.02 ± 0.056.

**Q.** And the NP40-soluble protein abundance ([2]; concentration: 4mM)?
**A.** The NP40-soluble protein abundance was 1.01 ± 0.092.

**Q.** And the NP40-soluble protein abundance ([2]; concentration: 6mM)?
**A.** The NP40-soluble protein abundance was 1.04 ± 0.065.

**Q.** What about the NP40-soluble protein abundance ([2]; concentration: 8mM) of the same compound?
**A.** The NP40-soluble protein abundance was 1.06 ± 0.063.

**Q.** What about the NP40-soluble protein abundance ([2]; concentration: 10mM) of the same compound?
**A.** The NP40-soluble protein abundance was 1.06 ± 0.045.

**Q.** What about the NP40-soluble protein abundance ([3]; concentration: 1mM) of the same compound?
**A.** The NP40-soluble protein abundance was 1.05 ± 0.045.

**Q.** And the NP40-soluble protein abundance ([3]; concentration: 2mM)?
**A.** Its NP40-soluble protein abundance is 1.11 ± 0.054.

**Q.** And the NP40-soluble protein abundance ([3]; concentration: 4mM)?
**A.** Its NP40-soluble protein abundance is 1.199 ± 0.011.

**Q.** And the NP40-soluble protein abundance ([3]; concentration: 6mM)?
**A.** The NP40-soluble protein abundance was 1.28 ± 0.049.

**Q.** What about the NP40-soluble protein abundance ([3]; concentration: 8mM) of the same compound?
**A.** Its NP40-soluble protein abundance is 1.25 ± 0.066.

**Q.** What about the NP40-soluble protein abundance ([3]; concentration: 10mM) of the same compound?
**A.** Its NP40-soluble protein abundance is 1.32 ± 0.057.

**Q.** And the NP40-soluble protein abundance ([4]; concentration: 1mM)?
**A.** Its NP40-soluble protein abundance is 1.03 ± 0.052.

**Q.** And the NP40-soluble protein abundance ([4]; concentration: 2mM)?
**A.** The NP40-soluble protein abundance was 1.1 ± 0.046.

**Q.** What about the NP40-soluble protein abundance ([4]; concentration: 4mM) of the same compound?
**A.** Its NP40-soluble protein abundance is 1.22 ± 0.025.

**Q.** And the NP40-soluble protein abundance ([4]; concentration: 6mM)?
**A.** The NP40-soluble protein abundance was 1.27 ± 0.094.

**Q.** What about the NP40-soluble protein abundance ([4]; concentration: 8mM) of the same compound?
**A.** The NP40-soluble protein abundance was 1.27 ± 0.096.

**Q.** What about the NP40-soluble protein abundance ([4]; concentration: 10mM) of the same compound?
**A.** Its NP40-soluble protein abundance is 1.32 ± 0.018.

**Q.** And the NP40-soluble protein abundance ([5]; concentration: 1mM)?
**A.** The NP40-soluble protein abundance was 0.963 ± 0.11.

**Q.** And the NP40-soluble protein abundance ([5]; concentration: 2mM)?
**A.** The NP40-soluble protein abundance was 1.01 ± 0.053.

**Q.** And the NP40-soluble protein abundance ([5]; concentration: 4mM)?
**A.** The NP40-soluble protein abundance was 0.962 ± 0.046.

**Q.** And the NP40-soluble protein abundance ([5]; concentration: 6mM)?
**A.** Its NP40-soluble protein abundance is 0.943 ± 0.08.

**Q.** And the NP40-soluble protein abundance ([5]; concentration: 8mM)?
**A.** The NP40-soluble protein abundance was 0.957 ± 0.034.

**Q.** And the NP40-soluble protein abundance ([5]; concentration: 10mM)?
**A.** Its NP40-soluble protein abundance is 0.884 ± 0.12.

**Q.** What about the NP40-soluble protein abundance ([6]; concentration: 1mM) of the same compound?
**A.** Its NP40-soluble protein abundance is 0.963 ± 0.13.

**Q.** What about the NP40-soluble protein abundance ([6]; concentration: 2mM) of the same compound?
**A.** The NP40-soluble protein abundance was 0.991 ± 0.097.

**Q.** What about the NP40-soluble protein abundance ([6]; concentration: 4mM) of the same compound?
**A.** The NP40-soluble protein abundance was 0.962 ± 0.12.

**Q.** And the NP40-soluble protein abundance ([6]; concentration: 6mM)?
**A.** The NP40-soluble protein abundance was 0.898 ± 0.093.

**Q.** And the NP40-soluble protein abundance ([6]; concentration: 8mM)?
**A.** Its NP40-soluble protein abundance is 0.907 ± 0.15.

**Q.** What about the NP40-soluble protein abundance ([6]; concentration: 10mM) of the same compound?
**A.** The NP40-soluble protein abundance was 0.937 ± 0.06.
